Measured values published in patent publication US20120035244A1, “PARP1 TARGETED THERAPY” (THE REGENTS OF THE UNIVERSITY OF MICHIGAN, priority 2010, published 2012).
No constants are given. Whether binding was seen depends on the method and setting. Some results given as binding are weak or reduced against the parent protein; the word gives no strength. For part of these data: Tags and fused reporters may be left off the sequences shown.

Chains of the proteins cited; added tags and fusions are not shown. Residues count along the entry.
UniProt P78527: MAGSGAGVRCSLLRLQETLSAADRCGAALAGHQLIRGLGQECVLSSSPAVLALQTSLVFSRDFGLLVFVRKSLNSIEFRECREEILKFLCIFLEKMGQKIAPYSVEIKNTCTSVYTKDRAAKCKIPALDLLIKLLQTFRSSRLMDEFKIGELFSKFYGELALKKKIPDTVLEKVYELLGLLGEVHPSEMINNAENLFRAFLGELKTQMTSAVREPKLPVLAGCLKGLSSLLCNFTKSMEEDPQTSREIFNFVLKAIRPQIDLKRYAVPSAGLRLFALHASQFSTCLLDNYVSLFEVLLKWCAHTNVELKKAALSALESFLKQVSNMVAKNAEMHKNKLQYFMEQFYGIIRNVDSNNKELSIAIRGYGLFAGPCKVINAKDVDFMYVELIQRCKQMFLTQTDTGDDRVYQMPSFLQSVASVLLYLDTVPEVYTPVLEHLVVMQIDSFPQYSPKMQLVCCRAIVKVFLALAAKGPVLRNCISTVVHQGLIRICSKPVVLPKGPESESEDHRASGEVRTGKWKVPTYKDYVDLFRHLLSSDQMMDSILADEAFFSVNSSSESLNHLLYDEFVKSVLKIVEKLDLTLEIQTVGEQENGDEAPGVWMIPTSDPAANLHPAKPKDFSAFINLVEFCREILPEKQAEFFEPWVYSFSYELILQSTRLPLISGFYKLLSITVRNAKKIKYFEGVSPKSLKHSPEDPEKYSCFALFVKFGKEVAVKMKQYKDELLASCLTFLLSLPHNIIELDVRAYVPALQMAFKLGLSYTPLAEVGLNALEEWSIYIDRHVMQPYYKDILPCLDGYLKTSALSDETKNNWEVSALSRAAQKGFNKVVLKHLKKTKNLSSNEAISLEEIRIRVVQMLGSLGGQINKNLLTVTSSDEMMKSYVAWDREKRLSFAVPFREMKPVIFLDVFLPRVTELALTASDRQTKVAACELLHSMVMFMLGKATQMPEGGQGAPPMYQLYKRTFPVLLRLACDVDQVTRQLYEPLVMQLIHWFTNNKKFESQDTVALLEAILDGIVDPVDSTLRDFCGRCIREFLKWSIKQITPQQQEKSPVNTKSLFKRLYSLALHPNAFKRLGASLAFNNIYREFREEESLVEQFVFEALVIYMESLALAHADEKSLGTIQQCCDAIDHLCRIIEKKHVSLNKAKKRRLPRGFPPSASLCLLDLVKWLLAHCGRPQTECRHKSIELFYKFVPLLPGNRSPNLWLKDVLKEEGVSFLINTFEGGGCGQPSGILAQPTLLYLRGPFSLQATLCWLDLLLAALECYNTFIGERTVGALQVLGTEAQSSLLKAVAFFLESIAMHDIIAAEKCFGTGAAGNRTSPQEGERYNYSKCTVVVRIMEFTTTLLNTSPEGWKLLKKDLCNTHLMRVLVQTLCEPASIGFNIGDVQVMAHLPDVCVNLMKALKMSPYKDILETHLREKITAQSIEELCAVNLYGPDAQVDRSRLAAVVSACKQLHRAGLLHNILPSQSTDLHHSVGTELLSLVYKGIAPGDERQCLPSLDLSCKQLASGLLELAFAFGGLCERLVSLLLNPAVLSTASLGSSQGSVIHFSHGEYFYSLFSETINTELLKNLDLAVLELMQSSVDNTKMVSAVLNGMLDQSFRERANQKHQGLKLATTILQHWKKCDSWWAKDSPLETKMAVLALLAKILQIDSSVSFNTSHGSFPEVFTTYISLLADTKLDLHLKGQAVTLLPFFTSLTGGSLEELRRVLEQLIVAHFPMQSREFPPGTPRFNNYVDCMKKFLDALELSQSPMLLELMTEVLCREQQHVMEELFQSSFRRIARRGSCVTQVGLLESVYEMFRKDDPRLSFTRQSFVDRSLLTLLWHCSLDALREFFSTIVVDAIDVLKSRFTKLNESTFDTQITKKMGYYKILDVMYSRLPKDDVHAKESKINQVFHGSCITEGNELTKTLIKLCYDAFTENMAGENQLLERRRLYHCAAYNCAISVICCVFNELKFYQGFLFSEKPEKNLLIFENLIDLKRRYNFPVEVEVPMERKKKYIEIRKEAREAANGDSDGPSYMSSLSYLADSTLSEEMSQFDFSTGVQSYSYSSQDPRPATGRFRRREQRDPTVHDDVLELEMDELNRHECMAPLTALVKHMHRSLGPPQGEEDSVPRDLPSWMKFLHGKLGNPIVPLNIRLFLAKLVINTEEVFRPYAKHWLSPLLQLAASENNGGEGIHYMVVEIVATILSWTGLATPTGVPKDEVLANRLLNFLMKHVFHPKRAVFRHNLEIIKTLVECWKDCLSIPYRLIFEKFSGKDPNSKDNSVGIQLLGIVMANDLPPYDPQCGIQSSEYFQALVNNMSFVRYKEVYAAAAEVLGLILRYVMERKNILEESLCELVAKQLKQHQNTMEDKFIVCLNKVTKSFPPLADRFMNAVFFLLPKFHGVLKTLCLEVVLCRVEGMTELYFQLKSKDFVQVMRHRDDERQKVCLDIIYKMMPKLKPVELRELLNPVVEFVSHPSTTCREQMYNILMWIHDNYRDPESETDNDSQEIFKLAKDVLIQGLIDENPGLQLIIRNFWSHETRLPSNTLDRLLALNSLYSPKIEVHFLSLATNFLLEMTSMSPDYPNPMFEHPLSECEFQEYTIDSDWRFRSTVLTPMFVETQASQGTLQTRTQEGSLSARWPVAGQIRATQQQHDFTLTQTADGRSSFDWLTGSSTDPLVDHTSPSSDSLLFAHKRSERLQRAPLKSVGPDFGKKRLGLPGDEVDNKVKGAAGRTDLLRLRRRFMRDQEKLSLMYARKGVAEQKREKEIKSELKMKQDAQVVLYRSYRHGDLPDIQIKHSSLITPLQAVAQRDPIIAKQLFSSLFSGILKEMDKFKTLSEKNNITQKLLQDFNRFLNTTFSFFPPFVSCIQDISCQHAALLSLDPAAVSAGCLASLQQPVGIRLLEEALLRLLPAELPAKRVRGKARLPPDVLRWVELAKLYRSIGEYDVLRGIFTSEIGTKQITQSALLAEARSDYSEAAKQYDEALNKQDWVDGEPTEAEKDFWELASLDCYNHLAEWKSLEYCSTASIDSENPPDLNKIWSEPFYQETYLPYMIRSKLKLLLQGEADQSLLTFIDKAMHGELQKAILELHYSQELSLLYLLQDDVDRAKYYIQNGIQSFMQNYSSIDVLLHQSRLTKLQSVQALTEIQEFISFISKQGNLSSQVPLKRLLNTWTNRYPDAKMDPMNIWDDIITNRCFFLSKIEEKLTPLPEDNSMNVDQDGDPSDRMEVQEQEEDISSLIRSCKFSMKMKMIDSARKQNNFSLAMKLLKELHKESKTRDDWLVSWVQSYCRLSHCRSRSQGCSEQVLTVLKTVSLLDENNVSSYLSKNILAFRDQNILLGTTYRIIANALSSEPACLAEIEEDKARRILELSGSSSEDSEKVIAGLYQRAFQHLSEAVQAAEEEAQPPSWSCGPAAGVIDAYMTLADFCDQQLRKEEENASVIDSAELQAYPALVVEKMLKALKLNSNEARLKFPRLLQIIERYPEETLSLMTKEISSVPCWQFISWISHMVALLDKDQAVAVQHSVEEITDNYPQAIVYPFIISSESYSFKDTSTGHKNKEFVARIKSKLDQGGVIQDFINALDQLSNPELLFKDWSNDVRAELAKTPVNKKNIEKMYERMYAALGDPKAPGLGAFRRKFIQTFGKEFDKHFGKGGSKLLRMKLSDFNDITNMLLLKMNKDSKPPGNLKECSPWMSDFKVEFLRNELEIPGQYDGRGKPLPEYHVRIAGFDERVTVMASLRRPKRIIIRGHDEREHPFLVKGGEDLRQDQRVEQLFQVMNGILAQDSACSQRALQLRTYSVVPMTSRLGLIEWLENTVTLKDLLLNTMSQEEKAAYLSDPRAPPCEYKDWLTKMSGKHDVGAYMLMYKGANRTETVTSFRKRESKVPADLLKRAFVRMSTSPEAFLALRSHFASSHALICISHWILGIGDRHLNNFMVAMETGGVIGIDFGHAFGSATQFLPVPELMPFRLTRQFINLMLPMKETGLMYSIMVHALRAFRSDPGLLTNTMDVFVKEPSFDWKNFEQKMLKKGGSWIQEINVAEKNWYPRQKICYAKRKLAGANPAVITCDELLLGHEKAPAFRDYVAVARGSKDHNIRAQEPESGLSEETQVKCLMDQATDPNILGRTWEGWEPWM
UniProt P09874, residues 2-1014: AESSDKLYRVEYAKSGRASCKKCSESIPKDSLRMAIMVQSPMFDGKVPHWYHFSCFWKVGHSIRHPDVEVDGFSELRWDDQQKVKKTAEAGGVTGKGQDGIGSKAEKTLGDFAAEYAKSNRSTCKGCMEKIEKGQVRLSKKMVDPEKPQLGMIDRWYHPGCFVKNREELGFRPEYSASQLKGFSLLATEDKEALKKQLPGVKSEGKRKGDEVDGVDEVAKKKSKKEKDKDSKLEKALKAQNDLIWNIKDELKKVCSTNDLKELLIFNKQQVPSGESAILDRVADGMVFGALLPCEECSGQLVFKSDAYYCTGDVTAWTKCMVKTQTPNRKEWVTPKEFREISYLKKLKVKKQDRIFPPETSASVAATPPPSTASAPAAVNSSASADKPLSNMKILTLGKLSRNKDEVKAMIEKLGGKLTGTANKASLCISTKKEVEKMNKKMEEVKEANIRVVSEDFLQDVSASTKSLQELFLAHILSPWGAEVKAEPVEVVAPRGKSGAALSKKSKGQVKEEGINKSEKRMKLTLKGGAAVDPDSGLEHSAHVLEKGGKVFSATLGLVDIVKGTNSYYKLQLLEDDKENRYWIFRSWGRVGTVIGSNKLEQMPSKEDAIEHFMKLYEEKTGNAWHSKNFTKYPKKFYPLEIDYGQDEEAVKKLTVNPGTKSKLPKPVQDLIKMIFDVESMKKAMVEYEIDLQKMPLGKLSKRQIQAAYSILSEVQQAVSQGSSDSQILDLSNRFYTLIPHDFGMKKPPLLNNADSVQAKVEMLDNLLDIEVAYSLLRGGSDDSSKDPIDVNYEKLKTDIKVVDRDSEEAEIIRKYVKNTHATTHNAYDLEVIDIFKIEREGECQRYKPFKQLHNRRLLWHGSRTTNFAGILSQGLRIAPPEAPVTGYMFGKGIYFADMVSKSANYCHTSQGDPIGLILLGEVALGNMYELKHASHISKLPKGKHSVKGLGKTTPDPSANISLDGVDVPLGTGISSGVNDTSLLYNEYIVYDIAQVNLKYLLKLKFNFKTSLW
UniProt P50549: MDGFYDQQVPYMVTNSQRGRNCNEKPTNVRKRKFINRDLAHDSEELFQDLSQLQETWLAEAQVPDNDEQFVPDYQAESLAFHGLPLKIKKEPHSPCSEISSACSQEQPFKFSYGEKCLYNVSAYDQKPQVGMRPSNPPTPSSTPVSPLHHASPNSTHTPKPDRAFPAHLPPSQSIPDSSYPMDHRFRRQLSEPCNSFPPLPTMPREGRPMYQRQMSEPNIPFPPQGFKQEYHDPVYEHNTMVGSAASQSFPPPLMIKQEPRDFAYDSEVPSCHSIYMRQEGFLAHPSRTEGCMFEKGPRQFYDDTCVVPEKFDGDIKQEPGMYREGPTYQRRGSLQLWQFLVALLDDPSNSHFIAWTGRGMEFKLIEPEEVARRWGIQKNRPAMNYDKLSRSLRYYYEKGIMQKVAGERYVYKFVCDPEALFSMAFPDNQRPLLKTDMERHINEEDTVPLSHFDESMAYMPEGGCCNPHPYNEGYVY

Legend:
[1] = target: DNA-dependent protein kinase catalytic subunit (DNA-PKcs) (human) (UniProt P78527); assay: IP-Western in HEK293 cells transfected with ETV1-FLAG (FIG. 10)
[2] = target: poly-(ADP-ribose) polymerase (PARP1) (human) (UniProt P09874); assay: as above
[3] = target: T1, ERG, TMPRSS2:ERG gene fusion product (TMPRSS2 exon 1 fused to ERG1 exon 2) (human) (UniProt P11308); assay: IP with agarose-coupled PARP1 antibody from VCaP cells, Western blot (FIG. 9B)
T1 sequence (looked up): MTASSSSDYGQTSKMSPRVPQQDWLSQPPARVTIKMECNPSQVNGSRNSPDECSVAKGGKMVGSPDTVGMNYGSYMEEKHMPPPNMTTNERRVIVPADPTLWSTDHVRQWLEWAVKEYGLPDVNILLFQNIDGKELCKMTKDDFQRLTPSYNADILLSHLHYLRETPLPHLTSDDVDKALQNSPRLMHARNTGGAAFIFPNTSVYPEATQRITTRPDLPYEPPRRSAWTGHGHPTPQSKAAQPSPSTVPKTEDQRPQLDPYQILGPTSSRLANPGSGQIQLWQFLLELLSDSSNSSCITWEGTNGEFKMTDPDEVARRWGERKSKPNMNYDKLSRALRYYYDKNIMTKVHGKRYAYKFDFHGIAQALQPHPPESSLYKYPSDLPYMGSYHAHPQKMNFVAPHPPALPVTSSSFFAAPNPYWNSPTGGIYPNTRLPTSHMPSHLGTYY

binding [1]	binding [2]	binding [3]	Substance
binds	binds	–	ETV1-FLAG (from UniProt P50549 1-477)
–	–	binds	poly-(ADP-ribose) polymerase (PARP1) (from UniProt P09874 2-1014) (enzyme)
